According to US20160018417A1:
Results are given in words; binding and its absence hold for the method and conditions named. Some results given as binding are weak or reduced against the parent protein; the word gives no strength.

Protein sequences, listed by entry. Tags and fused reporters are not part of them. Lines headed by an entry give the natural chain unless they say otherwise; changes in a name come on top.
UniProt P10636: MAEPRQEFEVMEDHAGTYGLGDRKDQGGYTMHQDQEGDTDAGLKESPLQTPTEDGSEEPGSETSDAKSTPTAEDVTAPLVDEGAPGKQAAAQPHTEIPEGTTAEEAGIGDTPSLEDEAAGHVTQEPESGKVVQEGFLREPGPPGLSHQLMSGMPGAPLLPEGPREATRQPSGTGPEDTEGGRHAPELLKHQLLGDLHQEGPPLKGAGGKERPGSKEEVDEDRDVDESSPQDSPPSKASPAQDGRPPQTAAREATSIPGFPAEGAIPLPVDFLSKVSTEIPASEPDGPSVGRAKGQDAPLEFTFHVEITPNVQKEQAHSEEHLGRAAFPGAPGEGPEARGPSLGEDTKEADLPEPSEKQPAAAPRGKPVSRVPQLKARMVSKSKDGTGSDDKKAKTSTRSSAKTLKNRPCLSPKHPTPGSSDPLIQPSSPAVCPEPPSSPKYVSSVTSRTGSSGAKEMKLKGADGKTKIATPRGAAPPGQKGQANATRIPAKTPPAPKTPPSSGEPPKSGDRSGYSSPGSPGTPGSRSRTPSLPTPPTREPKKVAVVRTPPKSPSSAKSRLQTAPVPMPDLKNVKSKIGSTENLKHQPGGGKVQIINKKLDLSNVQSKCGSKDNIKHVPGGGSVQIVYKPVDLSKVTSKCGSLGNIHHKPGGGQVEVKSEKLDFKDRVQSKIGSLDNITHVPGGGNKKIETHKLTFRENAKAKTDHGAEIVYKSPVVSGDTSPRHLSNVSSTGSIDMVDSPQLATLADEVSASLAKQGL

Columns and labels:
[1] = target: T1, ΔSil1 construct (Sil1 construct lacking an ER signal) (human) (UniProt Q9H173); assay: immunoprecipitation of human tau from co-transfected cells, Western blot
T1 sequence: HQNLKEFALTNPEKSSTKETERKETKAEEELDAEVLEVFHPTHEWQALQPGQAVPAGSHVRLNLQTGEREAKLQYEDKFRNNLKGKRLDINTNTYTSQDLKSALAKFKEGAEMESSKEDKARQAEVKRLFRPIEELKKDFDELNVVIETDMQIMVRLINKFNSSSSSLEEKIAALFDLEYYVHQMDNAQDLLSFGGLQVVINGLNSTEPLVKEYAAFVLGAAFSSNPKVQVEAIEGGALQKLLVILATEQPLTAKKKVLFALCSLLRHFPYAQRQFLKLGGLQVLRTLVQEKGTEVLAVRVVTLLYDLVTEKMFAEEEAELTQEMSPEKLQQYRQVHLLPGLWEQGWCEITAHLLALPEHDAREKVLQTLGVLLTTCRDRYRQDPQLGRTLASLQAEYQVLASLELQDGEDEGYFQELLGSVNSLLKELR

[2] = target: T2, ΔSil1Δ construct (Sil1 construct lacking ER targeting and ER retention signals) (human) (UniProt Q9H173); assay: as above
T2 sequence: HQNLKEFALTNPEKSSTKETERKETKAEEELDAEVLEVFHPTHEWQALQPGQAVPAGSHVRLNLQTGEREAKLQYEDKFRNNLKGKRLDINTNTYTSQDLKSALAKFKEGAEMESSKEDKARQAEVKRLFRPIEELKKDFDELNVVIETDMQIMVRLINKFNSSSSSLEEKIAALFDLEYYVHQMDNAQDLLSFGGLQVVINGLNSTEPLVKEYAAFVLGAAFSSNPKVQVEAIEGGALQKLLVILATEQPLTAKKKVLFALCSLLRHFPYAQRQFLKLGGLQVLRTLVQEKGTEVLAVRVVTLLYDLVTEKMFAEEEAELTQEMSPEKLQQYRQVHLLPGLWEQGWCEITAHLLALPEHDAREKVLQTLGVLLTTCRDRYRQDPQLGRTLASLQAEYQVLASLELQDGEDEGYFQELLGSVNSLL

For “human tau (hTau) (from UniProt P10636 2-758)”, the binding [1] was “binds” and the binding [2] was “binds”.
